# Test results: the supplement of paper PMC8728848
# Some of the results follow.
# Tests used:
# Test in all cases: glycan array binding signal (z-score within array); higher = stronger binding
# Details in all cases: glycan notation: IUPAC condensed, linker removed
# [1] = target: Fuc(a1-2)Gal6S(b1-3)GlcNAc6S
# In short: (§1)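 Glycan array data came from 3228 arrays in the Consortium for Functional Glycomics database, and only arrays with an available protein sequence were kept. Glycan names were put into IUPAC-condensed notation, and columns mapping to the same glycan were averaged. The binding signal is a within-array Z-score, averaged across arrays of one protein sequence run at different concentrations or buffers and across linkers. A negative Z-score can be read as non-binding.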
# [2] = target: Fuc(a1-2)Gal6S(b1-4)Glc
# In short: as §1
# [3] = target: Fuc(a1-2)Gal6S(b1-4)Glc6S
# In short: as §1
# [4] = target: Fuc(a1-2)[Gal(a1-3)]Gal
# In short: as §1
# [5] = target: Fuc(a1-2)[Gal(a1-3)]Gal(b1-3)GalNAc
# In short: as §1
# [6] = target: Fuc(a1-2)[Gal(a1-3)]Gal(b1-3)GalNAc(b1-3)Gal(a1-4)Gal(b1-4)Glc
# In short: as §1
# [7] = target: Fuc(a1-2)[Gal(a1-3)]Gal(b1-3)GlcNAc
# In short: as §1
# [8] = target: Fuc(a1-2)[Gal(a1-3)]Gal(b1-3)GlcNAc(b1-2)Man(a1-3)[Fuc(a1-2)[Gal(a1-3)]Gal(b1-3)GlcNAc(b1-2)Man(a1-6)]Man(b1-4)GlcNAc(b1-4)GlcNAc
# In short: as §1
# [9] = target: Fuc(a1-2)[Gal(a1-3)]Gal(b1-3)GlcNAc(b1-2)Man(a1-3)[Fuc(a1-2)[Gal(a1-3)]Gal(b1-3)GlcNAc(b1-2)Man(a1-6)]Man(b1-4)GlcNAc(b1-4)[Fuc(a1-6)]GlcNAc
# In short: as §1
# [10] = target: Fuc(a1-2)[Gal(a1-3)]Gal(b1-3)GlcNAc(b1-3)GalNAc
# In short: as §1
# [11] = target: Fuc(a1-2)[Gal(a1-3)]Gal(b1-3)GlcNAc(b1-6)GalNAc
# In short: as §1
# [12] = target: Fuc(a1-2)[Gal(a1-3)]Gal(b1-4)Glc
# In short: as §1
# [13] = target: Fuc(a1-2)[Gal(a1-3)]Gal(b1-4)GlcNAc
# In short: as §1
# [14] = target: Fuc(a1-2)[Gal(a1-3)]Gal(b1-4)GlcNAc(b1-2)Man
# In short: as §1
# [15] = target: Fuc(a1-2)[Gal(a1-3)]Gal(b1-4)GlcNAc(b1-2)Man(a1-3)[Fuc(a1-2)[Gal(a1-3)]Gal(b1-4)GlcNAc(b1-2)Man(a1-6)]Man(b1-4)GlcNAc(b1-4)GlcNAc
# In short: as §1
# [16] = target: Fuc(a1-2)[Gal(a1-3)]Gal(b1-4)GlcNAc(b1-2)Man(a1-3)[Fuc(a1-2)[Gal(a1-3)]Gal(b1-4)GlcNAc(b1-2)Man(a1-6)]Man(b1-4)GlcNAc(b1-4)[Fuc(a1-6)]GlcNAc
# In short: as §1
# [17] = target: Fuc(a1-2)[Gal(a1-3)]Gal(b1-4)GlcNAc(b1-3)GalNAc
# In short: as §1
# [18] = target: Fuc(a1-2)[Gal(a1-3)]Gal(b1-4)GlcNAc(b1-3)[Fuc(a1-2)[Gal(a1-3)]Gal(b1-4)GlcNAc(b1-6)]GalNAc
# In short: as §1
# [19] = target: Fuc(a1-2)[Gal(a1-3)]Gal(b1-4)GlcNAc(b1-6)GalNAc
# In short: as §1
# [20] = target: Fuc(a1-2)[Gal(a1-3)]Gal(b1-4)[Fuc(a1-3)]Glc
# In short: as §1
# [21] = target: Fuc(a1-2)[Gal(a1-3)]Gal(b1-4)[Fuc(a1-3)]GlcNAc
# In short: as §1
# [22] = target: Fuc(a1-2)[Gal(a1-3)]Gal(b1-4)[Fuc(a1-3)]GlcNAc(b1-3)GalNAc
# In short: as §1
# [23] = target: Fuc(a1-2)[Gal(a1-4)]Gal(b1-4)GlcNAc
# In short: as §1
# [24] = target: Fuc(a1-2)[GalNAc(a1-3)]Gal
# In short: as §1
# [25] = target: Fuc(a1-2)[GalNAc(a1-3)]Gal(b1-3)GalNAc(a1-3)[Fuc(a1-2)]Gal(b1-4)GlcNAc
# In short: as §1
# [26] = target: Fuc(a1-2)[GalNAc(a1-3)]Gal(b1-3)GalNAc(b1-3)Gal(a1-4)Gal(b1-4)Glc
# In short: as §1
# [27] = target: Fuc(a1-2)[GalNAc(a1-3)]Gal(b1-3)GlcNAc
# In short: as §1
# [28] = target: Fuc(a1-2)[GalNAc(a1-3)]Gal(b1-3)GlcNAc(b1-2)Man(a1-3)[Fuc(a1-2)[GalNAc(a1-3)]Gal(b1-3)GlcNAc(b1-2)Man(a1-6)]Man(b1-4)GlcNAc(b1-4)GlcNAc
# In short: as §1
# [29] = target: Fuc(a1-2)[GalNAc(a1-3)]Gal(b1-3)GlcNAc(b1-2)Man(a1-3)[Fuc(a1-2)[GalNAc(a1-3)]Gal(b1-3)GlcNAc(b1-2)Man(a1-6)]Man(b1-4)GlcNAc(b1-4)[Fuc(a1-6)]GlcNAc
# In short: as §1
# [30] = target: Fuc(a1-2)[GalNAc(a1-3)]Gal(b1-3)GlcNAc(b1-3)GalNAc
# In short: as §1
# [31] = target: Fuc(a1-2)[GalNAc(a1-3)]Gal(b1-3)GlcNAc(b1-6)GalNAc
# In short: as §1
# [32] = target: Fuc(a1-2)[GalNAc(a1-3)]Gal(b1-4)Glc
# In short: as §1
# [33] = target: Fuc(a1-2)[GalNAc(a1-3)]Gal(b1-4)GlcNAc
# In short: as §1
# [34] = target: Fuc(a1-2)[GalNAc(a1-3)]Gal(b1-4)GlcNAc(b1-2)Man
# In short: as §1
# [35] = target: Fuc(a1-2)[GalNAc(a1-3)]Gal(b1-4)GlcNAc(b1-2)Man(a1-3)[Fuc(a1-2)[GalNAc(a1-3)]Gal(b1-4)GlcNAc(b1-2)Man(a1-6)]Man(b1-4)GlcNAc(b1-4)GlcNAc
# In short: as §1
# [36] = target: Fuc(a1-2)[GalNAc(a1-3)]Gal(b1-4)GlcNAc(b1-2)Man(a1-3)[Fuc(a1-2)[GalNAc(a1-3)]Gal(b1-4)GlcNAc(b1-2)Man(a1-6)]Man(b1-4)GlcNAc(b1-4)[Fuc(a1-6)]GlcNAc
# In short: as §1
# [37] = target: Fuc(a1-2)[GalNAc(a1-3)]Gal(b1-4)GlcNAc(b1-3)Gal(b1-4)GlcNAc
# In short: as §1
# [38] = target: Fuc(a1-2)[GalNAc(a1-3)]Gal(b1-4)GlcNAc(b1-3)Gal(b1-4)GlcNAc(b1-3)Gal(b1-4)GlcNAc
# In short: as §1
# [39] = target: Fuc(a1-2)[GalNAc(a1-3)]Gal(b1-4)GlcNAc(b1-3)GalNAc
# In short: as §1
# [40] = target: Fuc(a1-2)[GalNAc(a1-3)]Gal(b1-4)GlcNAc(b1-3)[Fuc(a1-2)[GalNAc(a1-3)]Gal(b1-4)GlcNAc(b1-6)]GalNAc
# In short: as §1
# [41] = target: Fuc(a1-2)[GalNAc(a1-3)]Gal(b1-4)GlcNAc(b1-6)GalNAc
# In short: as §1
# [42] = target: Fuc(a1-2)[GalNAc(a1-3)]Gal(b1-4)[Fuc(a1-3)]GlcNAc
# In short: as §1
# [43] = target: Fuc(a1-2)[GalNAc(a1-3)]Gal(b1-4)[Fuc(a1-3)]GlcNAc(b1-3)GalNAc
# In short: as §1
# [44] = target: Fuc(a1-2)[GalNAc(a1-4)]Gal(b1-4)GlcNAc
# In short: as §1
# [45] = target: Fuc(a1-2)[GalNAc(b1-3)]Gal
# In short: as §1
binder,measurement,setting,value
Nc3LysM-2 (protein) AHVLQARQSVSCDFATAANTGDTCASFAAAWGITEAAFAKLNPGVSCPGNLIAGSEYCVIGTVSTGAPTTTKAATTSTTPPTTTTTTKATTLSTSTTSVSPTGPSPQMPSITSTCNKFYQVQSGDGCWSIEQAQGVSASDFMAWNKAVDAQCDNLWLGYYVCVGVKGGSSPPPTTTTKPASSSAPTPQMPNTVSNCKKFHKVVSGDGCWAIEQAAGISASDFAKWNPYVDAACDNLWLGYYVCIGV,glycan array binding signal (z-score),[1],0.679
same,glycan array binding signal (z-score),[2],-0.379
same,glycan array binding signal (z-score),[3],0.948
same,glycan array binding signal (z-score),[4],-0.694
same,glycan array binding signal (z-score),[5],0.293
same,glycan array binding signal (z-score),[6],-0.339
same,glycan array binding signal (z-score),[7],-0.397
same,glycan array binding signal (z-score),[8],0.135
same,glycan array binding signal (z-score),[9],-0.813
same,glycan array binding signal (z-score),[10],-0.745
same,glycan array binding signal (z-score),[11],-0.813
same,glycan array binding signal (z-score),[12],0.96
same,glycan array binding signal (z-score),[13],1.22
same,glycan array binding signal (z-score),[14],0.033
same,glycan array binding signal (z-score),[15],2.78
same,glycan array binding signal (z-score),[16],-0.64
same,glycan array binding signal (z-score),[17],-1.24
same,glycan array binding signal (z-score),[18],-0.659
same,glycan array binding signal (z-score),[19],-0.505
same,glycan array binding signal (z-score),[20],-1.4
same,glycan array binding signal (z-score),[21],0.099
same,glycan array binding signal (z-score),[22],-0.725
same,glycan array binding signal (z-score),[23],0.067
same,glycan array binding signal (z-score),[24],-0.518
same,glycan array binding signal (z-score),[25],0.497
same,glycan array binding signal (z-score),[26],0.509
same,glycan array binding signal (z-score),[27],-0.081
same,glycan array binding signal (z-score),[28],0.427
same,glycan array binding signal (z-score),[29],0.699
same,glycan array binding signal (z-score),[30],0.467
same,glycan array binding signal (z-score),[31],-1.06
same,glycan array binding signal (z-score),[32],1.85
same,glycan array binding signal (z-score),[33],0.41
same,glycan array binding signal (z-score),[34],-1.26
same,glycan array binding signal (z-score),[35],0.12
same,glycan array binding signal (z-score),[36],1.46
same,glycan array binding signal (z-score),[37],-1.43
same,glycan array binding signal (z-score),[38],1.08
same,glycan array binding signal (z-score),[39],0.544
same,glycan array binding signal (z-score),[40],-0.869
same,glycan array binding signal (z-score),[41],-1.2
same,glycan array binding signal (z-score),[42],-0.802
same,glycan array binding signal (z-score),[43],0.942
same,glycan array binding signal (z-score),[44],-0.013
same,glycan array binding signal (z-score),[45],-0.782

# Part of the list above, as tab-separated lines:
binder	measurement	setting	value
Nc3LysM-2 (protein) AHVLQARQSVSCDFATAANTGDTCASFAAAWGITEAAFAKLNPGVSCPGNLIAGSEYCVIGTVSTGAPTTTKAATTSTTPPTTTTTTKATTLSTSTTSVSPTGPSPQMPSITSTCNKFYQVQSGDGCWSIEQAQGVSASDFMAWNKAVDAQCDNLWLGYYVCVGVKGGSSPPPTTTTKPASSSAPTPQMPNTVSNCKKFHKVVSGDGCWAIEQAAGISASDFAKWNPYVDAACDNLWLGYYVCIGV	glycan array binding signal (z-score)	[38]	1.08
same	glycan array binding signal (z-score)	[39]	0.544
